According to patent publication US20220396618A1 (RESEARCH FOUNDATION FOR THE STATE UNIVERSITY OF NEW YORK, published 2022):
These are yes or no findings as the source states them, for the method shown. Some binding calls cover weakened binding; strength is not graded here.

Sequences of proteins named here, by UniProt entry; tags and fusion partners are left off. Residues count along the entry.
UniProt Q62151, residues 23-402: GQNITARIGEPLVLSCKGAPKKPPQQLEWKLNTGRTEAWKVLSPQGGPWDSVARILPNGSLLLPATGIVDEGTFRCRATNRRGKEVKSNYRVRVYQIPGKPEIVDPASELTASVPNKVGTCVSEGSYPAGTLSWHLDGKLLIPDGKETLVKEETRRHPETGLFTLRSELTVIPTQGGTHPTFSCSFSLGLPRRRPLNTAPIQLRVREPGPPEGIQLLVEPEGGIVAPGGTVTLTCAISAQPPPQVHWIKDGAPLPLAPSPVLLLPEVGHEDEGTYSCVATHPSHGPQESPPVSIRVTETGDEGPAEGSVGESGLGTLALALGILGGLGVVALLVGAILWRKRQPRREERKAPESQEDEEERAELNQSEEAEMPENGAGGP
UniProt Q15109, residues 23-404: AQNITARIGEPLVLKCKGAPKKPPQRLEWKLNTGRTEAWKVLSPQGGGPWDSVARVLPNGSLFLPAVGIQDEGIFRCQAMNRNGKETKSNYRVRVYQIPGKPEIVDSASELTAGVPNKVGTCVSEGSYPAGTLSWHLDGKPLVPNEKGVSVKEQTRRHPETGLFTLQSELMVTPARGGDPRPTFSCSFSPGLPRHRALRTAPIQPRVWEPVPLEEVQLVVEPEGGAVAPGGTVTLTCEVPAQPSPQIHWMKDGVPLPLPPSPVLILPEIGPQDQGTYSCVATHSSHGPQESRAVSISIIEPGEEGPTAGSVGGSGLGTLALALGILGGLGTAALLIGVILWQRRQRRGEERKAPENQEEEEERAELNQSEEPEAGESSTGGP

Experiments:
[1] = target: murine RAGE on cells and tissue (murine) (UniProt Q62151); experiment: flow cytometry on murine 4T1 cells, 120 nM
[2] = target: human cell surface RAGE on tumor cells (human) (UniProt Q15109); experiment: flow cytometry on human tumor cell lines
[3] = target: murine RAGE on cells and tissue (murine) (UniProt Q62151); experiment: flow cytometry on murine 4T1 cells
[4] = target: human cell surface RAGE on tumor cells (human) (UniProt Q15109); experiment: flow cytometry on MDA-MB-453, MDA-MB-468 and N87 cells, 120 nM

Measured: binding

B1: rabbit B2 mAb (antibody, V domains shown)
VH: QSVKESEGGLFKPTDTLTLTCTVSGFTISSYDMSWVRQAPGKGLEWIGAIDSSGSAHYASWARSRSTITRNTNLNTVTLKMTSLTAADTATYFCWNANIWGPGTLVTVSS
VL: AQVLTQTASPVSAAVGSTVTINCQASQNVYDNNHLSWYQQKRGQPPKLLIYYASALASGVSSRFKGSGSGTQFTLTINDVQCDDAATYYCLGSYDCSADCFAFGGGTEVVV
notes: Rabbit monoclonal antibody from a hybridoma; also called B2 mAbs; rabbit mAb B2
binds: [1] | [2] | [3] | [4]
